Assay results from article PMC5715403.
Results are given in words; binding and its absence hold for the method and conditions named. Where a sequence is shown, tags or fusion partners need not be part of it.

Target: NifB from Chlorobium tepidum (NifBCt), His9-tagged (Chlorobium tepidum) (UniProt Q8KC85)
Assay: SEC; anaerobic; HiLoad 16/600 Superdex 200; 50 μM Na2HPO4 pH 7.6, 180 μM NaCl, 10% glycerol, 5 μM 2-mercaptoethanol, 2 μM Na2S2O4 (units as printed); 1 ml/min; calibrated with aldolase, conalbumin, ovalbumin, carbonic anhydrase; both purified

B1: NifB from Chlorobium tepidum (NifBCt), His9-tagged (enzyme, UniProt Q8KC85 1-424)
chain: MTLNIKNHPCFNDSSRHTYGRIHLPVAPKCNIQCNYCNRKFDCMNENRPGITSKVLSPRQALYYLDNALKLSPNISVVGIAGPGDPFANPEETMETLRLVREKYPEMLLCVATNGLDMLPYIEELAELQVSHVTLTINAIDPEIGQEIYAWVRYQKKMYRDRQAAELLLENQLAALQKLKRYGVTAKVNSIIIPGVNDQHVIEVARQVASMGADILNALPYYNTTETVFENIPEPDPMMVRKIQEEAGKLLPQMKHCARCRADAVGIIGEINSDEMMAKLAEAALMPKNPDEHRPYIAVASLEGVLINQHLGEADRFLVYALDEEKKSCTLVDSRQAPPPGGGKLRWEALAAKLSDCRAVLVNSAGDSPQSVLKASGIDVMSIEGVIEEAVYGVFTGQNLKHLMKSSQIHACKTSCGGDGNGCD
- binding: no binding
